Assay results: PubChem BioAssay AID1439 (NMMLSC, 2008)
About 770 (0.35%) of roughly 220,000 compounds were called active. This list was built around the results that the source calls inconclusive (neither active nor inactive); the mix of calls is not that of the screen. No stated cut-off is given here; in the data, active means binding response below about 49% or above about 150%; inconclusive means no clear call, values can overlap the other calls; inactive means in between.

By UniProt entry, the sequences of proteins in these tests, tags left out.
UniProt P09471, whole entry, looked up: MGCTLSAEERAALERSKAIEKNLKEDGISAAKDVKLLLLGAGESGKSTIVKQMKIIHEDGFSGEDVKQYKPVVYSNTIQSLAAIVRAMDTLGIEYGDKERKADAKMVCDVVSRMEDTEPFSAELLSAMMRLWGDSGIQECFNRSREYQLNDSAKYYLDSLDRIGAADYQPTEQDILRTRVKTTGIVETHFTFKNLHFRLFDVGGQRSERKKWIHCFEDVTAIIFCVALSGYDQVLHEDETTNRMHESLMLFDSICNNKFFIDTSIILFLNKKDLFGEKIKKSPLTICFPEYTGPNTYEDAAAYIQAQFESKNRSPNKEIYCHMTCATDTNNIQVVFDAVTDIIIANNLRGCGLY

These compounds were tested against Guanine nucleotide-binding protein G(o) subunit alpha (Homo sapiens) (UniProt P09471) (assay: RGS7-Galphao binding modulators, primary screen, biochemical, multiplexed bead flow cytometry (AID 1439;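 further: fluorescent Galphao held in activated GDP-AlF4 state binding bead-coupled RGS7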)). Details: at 10 µM, actives lie on both sides.
Clc1cccc(Cl)c1CSc1nnc([C@@H]2CCCN2)o1 was tested, and the binding response (% of control) was inconclusive: 119%.
With CCS(=O)(=O)c1ccc(O)c(NC(=O)Nc2cccc3ccccc23)c1 the binding response (% of control) was inconclusive: 90.5%.
With CCn1cc(S(=O)(=O)CC(=O)N2CCc3ccccc32)c2ccccc21 the binding response (% of control) was inconclusive: 72.9%.
In the case of O=C(O)c1ccc(NC2=Nc3cccc4cccc2c34)cc1, the binding response (% of control) was inconclusive: 372%.
With O=C(CN1C(=O)C2CCCCC2C1=O)N1CCN(c2ncccn2)CC1 (stereo not drawn) the binding response (% of control) was inconclusive: 109%.
With Cn1c(NC(=O)c2ccccc2F)c(-c2cccs2)c(=O)c2ccccc21 the binding response (% of control) was inconclusive: -20.6%.
COC(=O)CCCC1=CC2=C(c3ccccc3)C(=O)C(C)(OC(=O)C3CCCC3)C(=O)C2=CN1CC(C)C (stereo not drawn) was tested, and the binding response (% of control) was inconclusive: 95.8%.
With CCOC(=O)c1c(NC(=O)COC(=O)c2nc(Cl)ccc2Cl)sc2c1CCC2 the binding response (% of control) was inactive: 101%.
With NC(=O)CC(NC(=O)Cc1cccc2ccccc12)c1ccc(NC2CCCCCCC2)c([N+](=O)[O-])c1 (stereo not drawn) the binding response (% of control) was inconclusive: 96.4%.
For Cc1ccc(-c2c[n+]3c(n2-c2ccccc2)CCC3)cc1, the binding response (% of control) was inconclusive: 107%.
For Cc1cc(C)nc(N/N=C/c2ccccc2Cl)n1, the binding response (% of control) was inconclusive: 135%.
For NC(=O)c1c(/N=C/c2cccs2)sc2c1CCCC2, the binding response (% of control) was inconclusive: 88.2%.
With Nc1c(C(=O)c2ccccc2O)cnn1-c1ccc(S(=O)(=O)N2CCOCC2)cc1[N+](=O)[O-] the binding response (% of control) was inconclusive: 78.6%.
CN(C(=O)c1ccc(=O)n(Cc2ccc(Cl)cc2)c1)c1ccccc1 was tested, and the binding response (% of control) was inconclusive: 120%.
In the case of CNS(=O)(=O)c1cccc(C(=O)NCC2(N3CCOCC3)CCCCC2)c1, the binding response (% of control) was inconclusive: 108%.
In the case of CS(=O)(=O)c1sc(C#N)c2c1C(=O)CC(c1ccccc1)C2 (stereo not drawn), the binding response (% of control) was inconclusive: 103%.
In the case of O=C(CN1CCC(O)(c2ccccc2)CC1)Nc1ccc2c(c1)OCCO2, the binding response (% of control) was inconclusive: 110%.
With CCOCCCNC(=O)c1ccc(N2CCOCC2)c(NS(=O)(=O)c2ccc(OC)cc2)c1 the binding response (% of control) was inactive: 100%.
In the case of O=c1cc(-c2ccccc2Cl)oc2cc(O)cc(O)c12, the binding response (% of control) was inactive: 101%.
In the case of CC(=O)Nc1ncc2c(n1)CC(c1ccco1)CC2=O (stereo not drawn), the binding response (% of control) was inactive: 93.7%.
With COc1cccc(C2CCCN2Cc2nc(-c3cnccn3)no2)c1 (stereo not drawn) the binding response (% of control) was inactive: 96.8%.
With Cc1ccc(N(CN2CCCC2=O)C(=O)c2ccccc2)cc1 the binding response (% of control) was inconclusive: 104%.
With Nc1nc(SC23CC4CC(CC(C4)C2)C3)ns1 the binding response (% of control) was inconclusive: 122%.
CC(=O)NC(Cc1c[nH]c2ccccc12)C(=O)OCC(=O)Nc1cc(C)on1 (stereo not drawn) was tested, and the binding response (% of control) was inactive: 112%.
O=c1[nH]c(=O)c2nnc(N/N=C/c3ccccc3F)nc2[nH]1 was tested, and the binding response (% of control) was inconclusive: 96.8%.
In the case of O=C(N/N=C/c1ccccc1)c1ccco1, the binding response (% of control) was inconclusive: 151%.
NC(=O)[C@H]1CC2(CC(c3cccc(NC(=O)COc4ccc(Cl)cc4)c3)=NO2)CN1C(=O)c1ccccc1C(=O)c1ccccc1 (stereo partly drawn) was tested, and the binding response (% of control) was inconclusive: 59.1%.
In the case of O=C(Cn1ccc2ccccc21)Nc1ccc2c(c1)OCO2, the binding response (% of control) was inconclusive: 104%.
For CC(C)(C)c1ccc(NC(=O)COC(=O)C2=COCCO2)cc1, the binding response (% of control) was inactive: 109%.
For CC(C)CC(=O)Nc1ncc([N+](=O)[O-])s1, the binding response (% of control) was inconclusive: 100%.
In the case of COCCCn1c(SCC(=O)NCc2ccccc2)nc2ccccc2c1=O, the binding response (% of control) was inactive: 108%.
COc1ccc(NS(=O)(=O)c2cc(NC(=O)CC3CCCC3)ccc2N2CCOCC2)cc1 was tested, and the binding response (% of control) was inconclusive: 92.6%.
In the case of O=C(Oc1ccc(Nc2ncnc3ccccc23)cc1)c1cccnc1, the binding response (% of control) was inactive: 99%.
Cc1ccc(-c2csc3nc(SCC(=O)N(C)C)n(Cc4ccccc4)c(=O)c23)cc1 was tested, and the binding response (% of control) was inactive: 104%.
With Cc1ccc(NC(=O)CN2C(=O)c3ccccc3C2=O)nc1 the binding response (% of control) was inconclusive: 97.3%.
In the case of COc1ccccc1-c1c(-c2ccc(O)cc2O)n[nH]c1C(F)(F)F, the binding response (% of control) was inconclusive: 97.1%.
For N#C/C(=N\Nc1ccc(F)cc1)C(=O)C1CC1, the binding response (% of control) was inconclusive: 89.6%.
For O=[N+]([O-])c1ccc(C2=NCCO2)cc1, the binding response (% of control) was inconclusive: 102%.
CCN1C(=O)/C(=C\c2ccc(-c3ccc([N+](=O)[O-])cc3OC)o2)SC1=Nc1cccc(C(=O)O)c1 was tested, and the binding response (% of control) was inconclusive: 123%.
For COc1cccc(-c2nc(N)nc(SC)c2C#N)c1, the binding response (% of control) was inconclusive: 503%.
With CC(C)Oc1cccc(C(=O)C2CCCN(C(=O)c3ccnn3C)C2)c1 (stereo not drawn) the binding response (% of control) was inactive: 100%.
In the case of CC(C)C1C(c2ccccc2)NC(c2ccccc2)CC1(O)c1ccc(F)cc1 (stereo not drawn), the binding response (% of control) was inconclusive: 74.7%.
In the case of CNc1nc(N)c([N+](=O)[O-])c(NCC2CCCO2)n1 (stereo not drawn), the binding response (% of control) was inconclusive: 119%.
CCN1CCN(S(=O)(=O)c2ccc(Oc3ccccc3OC)cc2)CC1 was tested, and the binding response (% of control) was inconclusive: 86.9%.
In the case of CC(C)C(=O)Nc1nc2c(c(=O)[nH]1)CCCC2, the binding response (% of control) was inactive: 103%.
With CCOC(=O)c1ccc(NC(=S)N(CCCN2CCCC2)Cc2cccs2)cc1 the binding response (% of control) was inconclusive: 90.9%.
CC1Cc2ccccc2N1S(=O)(=O)c1cnc(Cl)c(Br)c1 (stereo not drawn) was tested, and the binding response (% of control) was inconclusive: 97.5%.
CC(=O)c1c(C)[n+]([O-])c2ccc3c(non3O)c12 was tested, and the binding response (% of control) was inconclusive: 90.7%.
In the case of O=C(NC(=S)NCCc1ccccn1)c1ccco1, the binding response (% of control) was inconclusive: 106%.
In the case of CC(=O)c1sc2nc(C)c3c(c2c1N)CCCC3, the binding response (% of control) was inconclusive: 38.5%.
In the case of CCOc1cccc(/C=N/N2C(=O)CSC2=S)c1O, the binding response (% of control) was inconclusive: 77.2%.
In the case of N#CC(C(=O)Nc1cccc(Cl)c1)=C1Nc2ccccc2N1, the binding response (% of control) was inactive: 102%.
CC(C)NC(=S)NNc1nc2ccccc2s1 was tested, and the binding response (% of control) was inconclusive: 52.2%.
For Cc1ccc(C)c(N2CCN(C(=O)Nc3ccc4c(c3)N(C)C(=O)CS4)CC2)c1, the binding response (% of control) was inactive: 99.3%.
COc1ccc(OCCCNCCc2ccccc2)cc1 was tested, and the binding response (% of control) was inconclusive: 95.7%.
With CCOC(=O)c1cc(C(=O)OCC)c(=O)[nH]c1N1CCCC1 the binding response (% of control) was inactive: 99.2%.
In the case of COc1cc(SC)ccc1C(=O)N1CCN(c2ccccc2F)CC1, the binding response (% of control) was inactive: 96.8%.
In the case of Cc1ccc(C)c(C(=O)COc2ccc(C)nc2[N+](=O)[O-])c1, the binding response (% of control) was inactive: 102%.
With CCOC(=O)c1cccc(NC(=O)Cn2c(CC(=O)NC)nc3ccccc32)c1 the binding response (% of control) was inactive: 116%.
With O=C(Nc1nc2ccsc2c(=O)s1)C1CCC1 the binding response (% of control) was inconclusive: 116%.
CN(C)C(=S)NC(=O)C12CC3(C)CC(C)(CC(C)(C3)C1)C2 was tested, and the binding response (% of control) was inconclusive: 62.5%.
For Cc1ccc(C2=NN(C(=O)CCC(=O)O)C(c3cccs3)C2)cc1 (stereo not drawn), the binding response (% of control) was inconclusive: 145%.
For CC(=O)Nc1ccc(-c2nnn(CC(=O)Nc3ccc4c(c3)OCO4)n2)cc1Cl, the binding response (% of control) was inconclusive: 96.5%.
CCN=C1S/C(=C\c2cn(C(C)=O)nc2-c2ccccc2)C(=O)N1CC was tested, and the binding response (% of control) was inactive: 99%.
With COC(=O)c1ccc(S(=O)(=O)N2CCC(C(N)=O)CC2)n1C the binding response (% of control) was inconclusive: 100%.
In the case of NC(=O)CSc1cn(CCNC(=O)c2cccs2)c2ccccc12, the binding response (% of control) was inconclusive: 84%.
CC(NCc1ccc(-c2ccccc2)cc1)C(O)c1ccccc1 (stereo not drawn) was tested, and the binding response (% of control) was inactive: 99.9%.
In the case of COc1ccccc1Nc1nc(-c2cccc([N+](=O)[O-])c2)cs1, the binding response (% of control) was inconclusive: 119%.
With CCOC(=O)CNC(=O)CSc1nccn1Cc1ccco1 the binding response (% of control) was inconclusive: 96.9%.
In the case of CCCCOc1ccc(NC(=O)CCSc2nccn2C)cc1, the binding response (% of control) was inconclusive: 101%.
With Cn1[nH]c(-c2ccccc2)c(/C=N/O)c1=O the binding response (% of control) was inconclusive: 122%.
In the case of COc1cc(NC(=O)COc2ccc(Br)cc2)ccc1NC(=O)C(C)C, the binding response (% of control) was inconclusive: 106%.
With COC(=O)Cn1c2ccc(OC)cc2c2nc(C)sc21 the binding response (% of control) was inconclusive: 79.1%.
O=[N+]([O-])/C=C/c1cc2ccccc2[nH]1 was tested, and the binding response (% of control) was inconclusive: 93.7%.
In the case of CCCn1cc(CN2CCC(N3CCC(C(=O)N4CCOCC4)CC3)CC2)c(C)n1, the binding response (% of control) was inconclusive: -45.3%.
COc1ccc(CCNC(=O)CCC2COc3ccccc3O2)cc1OC (stereo not drawn) was tested, and the binding response (% of control) was inactive: 106%.
For CC1=NNC(=O)C1Oc1ccccc1 (stereo not drawn), the binding response (% of control) was inconclusive: 35.5%.
In the case of COCCCNC(=S)NNC(=O)c1ccc(C(C)(C)C)cc1, the binding response (% of control) was inconclusive: 164%.
For Cc1cc(Nc2ccccc2C(=O)O)n(-c2cccc(Cl)c2)n1, the binding response (% of control) was inconclusive: 88.1%.
O=C(CC(CC(=O)c1ccc(Br)cc1)c1cccnc1)c1ccc(Br)cc1 was tested, and the binding response (% of control) was inconclusive: 111%.
For COc1ccc(CCNC(=O)CSc2ccsc2[N+](=O)[O-])c(OC)c1, the binding response (% of control) was inconclusive: 101%.
CC1(C)CC(=O)C2=C(C1)Nc1cc(Cl)ccc1S2 was tested, and the binding response (% of control) was inconclusive: 96.5%.
For COc1cc(C(=O)NCC2(N3CCCCC3)CCCCC2)ccc1OCC(=O)N1CCOCC1, the binding response (% of control) was inconclusive: 42%.
For O=C(N/N=C/c1ccncc1)c1cccc(N/N=C/c2ccncc2)c1, the binding response (% of control) was inconclusive: 65.4%.
CSC(=NCc1ccco1)NC#N was tested, and the binding response (% of control) was inconclusive: 105%.
In the case of O=C(COC(=O)c1ccc(S(=O)(=O)Nc2ccccc2)cc1)NCCN1C(=O)CSC1=O, the binding response (% of control) was inactive: 99.3%.
O=C(NN1CCOCC1)c1sc2cccc(F)c2c1Cl was tested, and the binding response (% of control) was inconclusive: 91.5%.
In the case of O=C(CN1CCOCC1)N1CCN(S(=O)(=O)c2ccccc2)C1c1ccccc1 (stereo not drawn), the binding response (% of control) was inactive: 105%.
With C=CCNC(=O)C1CC2Cn3c(nc4cc5ccccc5cc43)C2N1C (stereo not drawn) the binding response (% of control) was inconclusive: 116%.
Cc1ccsc1/C=N/NC(=O)Cc1cc(=O)[nH][nH]1 was tested, and the binding response (% of control) was inconclusive: 92.2%.
In the case of CNC(=O)/C(C#N)=C1\SC(Cc2ccc(F)cc2)C(=O)N1c1ccccc1C (stereo not drawn), the binding response (% of control) was inconclusive: 115%.
For O=C(CCCOc1ccc(Cl)cc1Cl)NN1CCOCC1, the binding response (% of control) was inactive: 100%.
In the case of C(=N\c1nc2ccccc2n1CCN1CCCCC1)/c1cccs1, the binding response (% of control) was inactive: 108%.
